# Measurements reported in patent publication US20060029989A1, “Targeting cells having Mad2 mutation for treatment and/or prevention of disease” (Regents of the University of California, priority 1999, published 2006).
# At least one compound was matched to its structure with a doubt left.
# Legend:
# glioblastoma cells [1] = assay: growth, replication and phenotype of glioblastoma cells under continuous drug treatment; type: cell-based, human; details: tumor cells
# glioblastoma cells [2] = assay: tumorigenicity of treated tumor cells in athymic mice; type: in vivo
smiles,measurement,setting,value
O=C(O)Cc1ccccc1 [phenylacetate],"cell maturation and phenotype (cytoskeletal intermediate filaments, anchorage-independence)",glioblastoma cells [1],promoted cell maturation and reversion to a nonmalignant phenotype
same,tumorigenicity in athymic mice,glioblastoma cells [2],reduced tumorigenicity
